Among the data in PMC10603050 are binding values, retold here.

Amino acid sequences for entries named in this document (tags omitted).
UniProt Q14160: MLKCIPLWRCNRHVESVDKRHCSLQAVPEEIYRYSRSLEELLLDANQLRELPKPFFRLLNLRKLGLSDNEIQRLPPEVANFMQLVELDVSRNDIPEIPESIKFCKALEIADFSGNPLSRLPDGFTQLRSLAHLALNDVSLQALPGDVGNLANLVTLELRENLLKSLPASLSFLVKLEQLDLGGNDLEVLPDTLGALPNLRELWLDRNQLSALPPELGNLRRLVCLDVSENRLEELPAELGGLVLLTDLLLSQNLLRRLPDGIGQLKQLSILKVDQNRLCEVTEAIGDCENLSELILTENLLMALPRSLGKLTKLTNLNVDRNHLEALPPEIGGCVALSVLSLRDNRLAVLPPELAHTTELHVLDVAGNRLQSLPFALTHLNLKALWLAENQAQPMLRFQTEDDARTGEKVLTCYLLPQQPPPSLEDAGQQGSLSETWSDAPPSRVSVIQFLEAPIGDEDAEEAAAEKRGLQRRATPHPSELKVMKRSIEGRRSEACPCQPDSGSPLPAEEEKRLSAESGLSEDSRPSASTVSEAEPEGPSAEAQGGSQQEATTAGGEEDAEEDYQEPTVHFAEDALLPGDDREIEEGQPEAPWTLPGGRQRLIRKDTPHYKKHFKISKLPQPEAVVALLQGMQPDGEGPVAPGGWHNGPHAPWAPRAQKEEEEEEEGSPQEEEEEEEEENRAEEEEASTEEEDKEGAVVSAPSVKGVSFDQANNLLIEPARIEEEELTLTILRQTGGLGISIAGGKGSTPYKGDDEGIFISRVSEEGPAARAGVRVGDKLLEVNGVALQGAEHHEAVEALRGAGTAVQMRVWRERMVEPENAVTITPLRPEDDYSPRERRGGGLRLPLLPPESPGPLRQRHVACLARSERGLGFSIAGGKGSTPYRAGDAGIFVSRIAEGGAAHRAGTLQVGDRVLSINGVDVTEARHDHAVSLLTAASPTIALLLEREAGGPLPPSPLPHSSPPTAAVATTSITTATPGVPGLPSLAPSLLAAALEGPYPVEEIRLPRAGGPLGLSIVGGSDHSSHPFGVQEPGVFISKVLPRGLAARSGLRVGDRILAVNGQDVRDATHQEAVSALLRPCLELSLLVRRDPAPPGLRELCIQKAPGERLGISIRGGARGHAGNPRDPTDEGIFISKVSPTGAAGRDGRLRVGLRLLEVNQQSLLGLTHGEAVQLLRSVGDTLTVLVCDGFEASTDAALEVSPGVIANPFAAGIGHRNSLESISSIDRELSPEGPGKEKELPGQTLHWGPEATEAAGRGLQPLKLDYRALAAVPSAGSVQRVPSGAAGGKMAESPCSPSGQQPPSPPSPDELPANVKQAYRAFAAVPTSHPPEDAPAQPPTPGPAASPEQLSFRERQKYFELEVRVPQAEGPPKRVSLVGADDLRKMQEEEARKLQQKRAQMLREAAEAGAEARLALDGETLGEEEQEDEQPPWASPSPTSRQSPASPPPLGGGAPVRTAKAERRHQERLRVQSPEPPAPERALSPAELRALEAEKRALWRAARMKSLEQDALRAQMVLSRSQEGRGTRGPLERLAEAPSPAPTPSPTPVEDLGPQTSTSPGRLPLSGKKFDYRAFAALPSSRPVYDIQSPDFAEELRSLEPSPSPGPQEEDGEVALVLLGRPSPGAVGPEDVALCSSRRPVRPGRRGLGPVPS
UniProt Q676U5: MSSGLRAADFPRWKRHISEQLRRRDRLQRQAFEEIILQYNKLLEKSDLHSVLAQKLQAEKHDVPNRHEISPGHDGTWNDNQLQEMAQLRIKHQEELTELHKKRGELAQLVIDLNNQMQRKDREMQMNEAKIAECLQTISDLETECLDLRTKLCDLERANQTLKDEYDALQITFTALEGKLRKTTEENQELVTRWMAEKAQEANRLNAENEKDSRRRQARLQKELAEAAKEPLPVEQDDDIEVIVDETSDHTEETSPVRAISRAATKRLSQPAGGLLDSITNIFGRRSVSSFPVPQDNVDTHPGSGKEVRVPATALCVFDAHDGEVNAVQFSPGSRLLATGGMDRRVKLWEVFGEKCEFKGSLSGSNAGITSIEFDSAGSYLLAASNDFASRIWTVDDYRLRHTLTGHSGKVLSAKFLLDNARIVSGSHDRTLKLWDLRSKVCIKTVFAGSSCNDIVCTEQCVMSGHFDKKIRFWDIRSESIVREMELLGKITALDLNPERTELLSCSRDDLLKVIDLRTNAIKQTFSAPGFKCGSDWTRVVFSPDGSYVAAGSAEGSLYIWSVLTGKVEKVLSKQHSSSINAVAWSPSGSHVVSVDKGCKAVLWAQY

These are yes or no findings as the source states them, for the method shown. In cells and extracts the contact can be indirect. Some results given as binding are weak or reduced against the parent protein; the word gives no strength.

The target in one test is Flag-tagged SCRIB (UniProt Q14160). Nature of the test: co-IP; Flag-SCRIB or Flag-ATG16L1 expressed in 293 T cells; lysate (25 mM Tris-HCl pH 7.4, 150 mM NaCl, 1% NP-40, 1 mM EDTA, 5% glycerol) precipitated with anti-Flag-tag antibody; western blot with antibodies against the indicated proteins. A general note: A western blot detects proteins with antibodies after separation by electrophoresis.

The next test has as its target Flag-tagged ATG16L1 (UniProt Q676U5). The description is as above.

On to Atg16L1 (from UniProt Q676U5 1-607), for which the binding entry with Flag-tagged SCRIB is “binds”.

Regarding Scribble (from UniProt Q14160 1-1655), the binding result in the test with Flag-tagged ATG16L1 is “binds”.
